Experimental findings from PubChem BioAssay AID1347423 (Functional Genomics Laboratory (NCATS/FGL), 2020) are described below.

Among all 52,000 sequences or so, about 210 (0.4%) were called active.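 Rule for the calls: active = gene whose silencing raises cell survival under the drug, median off-target-corrected z-score across its silencing RNAs 2 or more; inactive = the rest.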 This is one part of the list.

The test is described as follows: Resistance to Poly (ADP-Ribose) Polymerase inhibitor: Gene Identification via Genome-wide siRNA Screen. The conditions noted are these: mouse BRCA2 R2336H ES cells, olaparib, CellTiter-Glo viability; stronger effect = higher value. Put shortly: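 Mouse BRCA2 R2336H ES cells were reverse-transfected with siRNA (20 nM final), treated at 48 h with 500 nM olaparib, and read by CellTiter-Glo after 72 h. Scores: MAD-based z per siRNA, median per gene, seed off-target correction.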
Background: Cellular ATP, detected with luciferase, serves as a proxy for viable cell number.
Regarding CGACUGGUCUUGAUUGUUATT against Hist1h2ac, the z-score was inactive: 0.887.

For the sequence GGGAGUUGAGAAGACAUAATT against Lim2, the z-score was inactive: 0.544.

GCGGGAGAAGCUAAUGAAATT against Ndufs5: the z-score was inactive: 0.883.

GGAACCUUAGUGGAGGAUATT against Icos: the z-score was inactive: 0.378.

In the case of CCUUAAAACAGAUCCACUUTT against Nell2, the z-score is inactive: 0.818.

In the case of GCUCAUUGACAGUAUCAGCTT against Apxl, the z-score was inactive: 0.805.

As to CGAUCUAGUCCGCCAUUACTT against Lck, the z-score was inactive: -1.53.

In the case of CCAGGAUCAUUCUUCUGAATT against Chrna7, the z-score is inactive: 0.733.

On to GGUAAAGGGUUCUUGGACATT against Eps15-rs, for which the z-score was inactive: -1.46.

“GGAGAGUCCAGUUUCCAUUTT against 2810428C21Rik”: the z-score was inactive: 1.11.

On to GGACCUCAUGAGAAAUAUGTT against Wbscr17, for which the z-score was inactive: -0.841.

Regarding GGAAGGACACACAUCCACUTT against Tpt1h, the z-score is inactive: -1.37.

Take GGAAGGAGCUUCGAAAAAATT against Pex16: the z-score is inactive: 0.0138.

For the sequence CGAAACUCCCAUUGUUAAUTT against Zfp521, the z-score is inactive: -0.294.

“CCCAUACUAUGCCAGGACATT against B130055A05Rik”: the z-score is inactive: -1.73.

For GGCGAGUUUUCCUCUUCAGTT against Sync, the z-score was inactive: 0.265.

Take “CGAAGAUAAUUAUGGAGCCTT against 6030410K14”: the z-score was inactive: -0.166.

As to GGGUAUACCCAACUUUUACTT against Hhex, the z-score was inactive: 1.84.

Consider GCAGUAAGUCAGUGCCUCATT against Sca1, for which the z-score was inactive: 1.57.

With CCAACCAAUAGUUCUAUACTT against Ppp3r2, the z-score is inactive: 0.442.

As for GGUCCAACCUUAUUGAAUGTT against Tlr6, the z-score was inactive: 0.522.

With “GCGACUGACCUUCAAACUGTT against 9230101H05Rik”, the z-score is inactive: 0.919.

In the case of “CCCAAUUUGUAUCAGAGGGTT against 4632425D07Rik”, the z-score was inactive: -0.566.

Take GUCUUGACCUUUGUAACUGTT against Olfr197: the z-score was inactive: -0.228.

On to “GGCUUGUCGUCCUGGUGUATT against 4930535B03Rik”, for which the z-score was inactive: -1.54.

As to GGAGGACGAGAACAGUAAGTT against Hcngp, the z-score is inactive: -1.44.

With GCUCAUUGAGAUAUCACAATT against Cabp2, the z-score is inactive: 0.647.

Regarding GGCUUUACUACUCAACCAUTT against Gjb3, the z-score is inactive: -0.0659.

GGAAACUGUUUUAGAUAAGTT against Tdrd6: the z-score was inactive: -0.595.

Turning to “GGAAUCAGAGUUUAAGUACTT against 1500040F11Rik”, the z-score was inactive: -0.59.

In the case of “GGAGGGAAUAGAGAAUCGGTT against A930024E05Rik”, the z-score was inactive: 0.547.

In the case of “GGAAUCUCUUUUCUUGCAUTT against 6330569M22Rik”, the z-score was inactive: 0.903.

In the case of CCUGAACAGAUUGAAGAGUTT against Myl3, the z-score was inactive: 1.6.

For the sequence GGGACUAACUUUCACCAGGTT against Wdr8, the z-score is inactive: 0.234.

GGUCAUCCCAUCUUACAAATT against 4.93E+26: the z-score is inactive: -0.326.

Regarding GGUAGACUUGAAGAAGUCATT against AI452372, the z-score was inactive: 0.661.

GGUUCUGCUGGACAACUUUTT against Cyp46a1: the z-score was inactive: -1.02.

As for “GGCACAAUUGAGGAGCGUATT against 4632409L19Rik”, the z-score was inactive: 0.583.

On to “GGUUCAGACGACAAGCAGATT against 9530068E07Rik”, for which the z-score is inactive: -0.31.

As for GGCCACCUAUGAUGGAAAUTT against Kdelr2, the z-score was inactive: -0.317.

Regarding CCUAAAUAUCCAAGACAUUTT against Mcm3, the z-score is inactive: -0.726.

Take GGUCACCGAUGACUACAUCTT against Ccr7: the z-score was inactive: 0.0544.

With “GGCCAUAUUUGUUGUUGUUTT against 1810007E14Rik”, the z-score was inactive: 0.553.

For the sequence “GCCUUUCGAACUUGGUUCGTT against E430004F17Rik”, the z-score was inactive: -0.304.

Take GCCAACCUUAACUAUUAAGTT against F2rl2: the z-score was inactive: -0.241.

In the case of “GUGACUCCAGUCGUGUCUATT against 2310021H06Rik”, the z-score was inactive: 1.4.

As to GGCAUUUCUUUCACUAGCUTT against Olfr618, the z-score is inactive: 1.6.

As for GGUCUGAACAGAAGAUUUGTT against Pdlim1, the z-score is inactive: 0.253.

Consider GGUUAAUAAUGCGACAGCATT against A2bp1, for which the z-score is inactive: 1.27.

For the sequence GGCGCAUUACCAGAGCUUCTT against Tnpo2, the z-score was inactive: 1.15.

Take GCCGCUGGUUCAUUAUCACTT against Tbx2: the z-score is inactive: 0.502.

GGUCUUCAUAUUUCUUGCUTT against Olfr10: the z-score is inactive: 3.1.

GGCAAUAUGUCGUAUGUAATT against Sfmbt2: the z-score was inactive: 0.359.

For GGACCUCACAAUGAGUAUGTT against Thtpa, the z-score was inactive: -0.87.

Take GCAAUUCUGUGUUCAUCCGTT against Phex: the z-score was inactive: 0.825.

In the case of “GGGAUGGGAUAGGGACAUATT against A330090H18”, the z-score was inactive: -0.744.

On to GGGAUGGUGAUGGUGAAAGTT against Qprt, for which the z-score is inactive: -1.68.

Regarding “GGCCCUUCUGGACUAUCAUTT against 4932423M01Rik”, the z-score is inactive: 0.644.

Take “GGAAGUAGAAGUGAGUGAATT against 2700088M22Rik”: the z-score was inactive: 0.212.

Consider GGUUAACGAUGAAGAUGUATT against Rab23, for which the z-score was inactive: -1.71.

For GGCUGAAAUUGACAAGUUGTT against Ing4, the z-score was inactive: 0.534.

Regarding CCUCUCCAGUGUCGACAUUTT against Olfr51, the z-score is inactive: 0.558.

As for CCCAUGCUUAUUACCGAGATT against Rab37, the z-score was inactive: 0.67.

For the sequence “GCUCCAUCAGCAAUACAAATT against D4Ertd478e”, the z-score was inactive: -1.61.

For the sequence “GCCUAUCACAUCUUAUCUGTT against 4930503B20Rik”, the z-score is inactive: 0.16.

Consider “GGCUUUCCAGUGGAAUUCCTT against 2700022J23Rik”, for which the z-score was inactive: 1.65.

With GCCUAAGACCAACUGGCAATT against Theg, the z-score is inactive: -1.01.

For GCCUUUGCGCAAAAUGGUCTT against MGC67181, the z-score was inactive: 0.541.

With GGAGGGCAUGGAGAACAUGTT against Pkn3, the z-score is inactive: 0.25.

For CCAAAGCCAGCAAAUAAACTT against Scnn1g, the z-score is inactive: 0.673.

GGUGGAACCUAUGUACUUUTT against Cygb: the z-score is inactive: 0.92.

In the case of GGACGAAAUCUUGUCUGAUTT against Apg4b, the z-score is inactive: -1.48.

For the sequence GGAAGAGGAGGAGCUGAUGTT against Speer4f, the z-score was inactive: 1.26.

As to GGUUCUGAAAGCAAACAAATT against Fgf18, the z-score is inactive: 1.19.

In the case of GCUUCACUCCACCUUUCAGTT against Prkcc, the z-score is inactive: 0.37.

In the case of CCCUAGCUAUCAAGAUAUUTT against Hace1, the z-score is inactive: 1.13.

As for GGACCUAAAGAUUAUCUUATT against Rgs4, the z-score was inactive: 1.35.

As for GGAUGCAAUCGACAUGGAGTT against Atp5f1, the z-score is inactive: -0.289.

Take “CAGCGGCCGCGCUUCACCGTT against 4930404N11Rik”: the z-score was inactive: 0.693.

For GCAGAUCGCAAAAGAUCCUTT against Nppa, the z-score is inactive: -0.265.

For the sequence “GGGCUUCACCCUCAUACAATT against A530088H08Rik”, the z-score was inactive: 0.845.

As for GGGUCGAUUGUCAAUAUCATT against Pecr, the z-score is inactive: 0.631.

As for GGAAUGAAAGUUCCACUAUTT against Emcn, the z-score is inactive: 0.651.

In the case of GCAAAUCGGCCAAGAGAUGTT against Vti1a, the z-score was inactive: -0.00161.

As to GGAAGCCAUCAUGAAAAUGTT against Tex27, the z-score is inactive: 0.472.

With GCCCGGAAUAUAUAGCCCUTT against Hdac10, the z-score was inactive: -0.274.

Take GGGAAGUUGUCCUUGAAGATT against Cd36: the z-score was inactive: -1.63.

For the sequence GCAAGAUCAAACCUUAGUGTT against Pbsn, the z-score is inactive: -0.897.

Regarding CCUUAUACCAUAGAGAACATT against Bfar, the z-score is inactive: -1.03.

For the sequence GGACAAAGUUGUUCCUUCUTT against Zfp13, the z-score is inactive: -0.292.

As for CGUUGCUGUUGUGGUCUUGTT against Olfr1232, the z-score is inactive: -1.78.

Turning to GGCCCUACCCAUUCAUUCUTT against Asb6, the z-score was inactive: -0.251.

For the sequence GGAUAGGAAAAAAUCACCATT against Prpf4b, the z-score was inactive: -2.75.

GGACAGAUACGUUAUCAAGTT against Il3: the z-score was inactive: 0.441.

For GGGAACCUAUUGAUAAUCUTT against Rnpc2, the z-score is inactive: 0.199.

Regarding GGUGUUCGGUGUCCUGGAATT against Pctp, the z-score is inactive: -1.75.

For GGAGUUGCUUGAUUUUAAATT against Pdk1, the z-score was inactive: -0.0168.

For the sequence “GCUCCUUAGACUCCACUCATT against 4930535E21Rik”, the z-score is inactive: 0.186.

As to CCUGAGUAUUAAAGUUUAGTT against Whsc2, the z-score was inactive: 0.397.

Consider CGUGGUGAGAUCAUAAAACTT against Bbox1, for which the z-score was inactive: 0.341.

As for GGAUAUCCUACAGUUCUGGTT against Krt2-5, the z-score was inactive: -0.652.

As for GGAAGUUUGUGUCUGAUGUTT against P2y5, the z-score is inactive: -0.121.

Take CCCAGUUUAGAUUGGUCAATT against Igfbp5: the z-score is inactive: 1.62.

Take “GGAGAUGCCAAAGUUAUGATT against 2610528E23Rik”: the z-score was inactive: 0.657.
